Laboratory results taken from the M2OR odorant receptor database.
The entries are a selection whose mix differs from that of the whole data set. Calls are pooled over several reports, among them a noisy single-well screen. The list shows a part of the results.

Key:
Conditions in all cases: stereoisomer not certain
OR10C1 (Homo sapiens) = biological target: T1, OR10C1 (Homo sapiens) (UniProt Q96KK4)
T1 sequence (whole entry): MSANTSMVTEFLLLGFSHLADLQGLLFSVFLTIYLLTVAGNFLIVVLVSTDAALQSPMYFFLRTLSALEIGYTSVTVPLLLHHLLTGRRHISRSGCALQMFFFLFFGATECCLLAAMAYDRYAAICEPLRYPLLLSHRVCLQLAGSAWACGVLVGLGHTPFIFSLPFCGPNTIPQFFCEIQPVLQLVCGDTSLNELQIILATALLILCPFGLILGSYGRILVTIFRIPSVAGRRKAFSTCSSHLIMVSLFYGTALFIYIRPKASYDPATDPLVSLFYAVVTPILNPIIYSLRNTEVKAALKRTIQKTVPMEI
Outline: (§1)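 Whether a receptor–molecule pair is responsive (active) rests on the original authors' judgment that its measured signal was statistically different from baseline. Pairs without that judgment are non-responsive (inactive). Sources used varied assay methods, commonly transient luciferase assays in mammalian cell lines.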

OR10G6 (Homo sapiens) = biological target: T2, OR10G6 (Homo sapiens) (UniProt Q8NH81)
T2 sequence (whole entry): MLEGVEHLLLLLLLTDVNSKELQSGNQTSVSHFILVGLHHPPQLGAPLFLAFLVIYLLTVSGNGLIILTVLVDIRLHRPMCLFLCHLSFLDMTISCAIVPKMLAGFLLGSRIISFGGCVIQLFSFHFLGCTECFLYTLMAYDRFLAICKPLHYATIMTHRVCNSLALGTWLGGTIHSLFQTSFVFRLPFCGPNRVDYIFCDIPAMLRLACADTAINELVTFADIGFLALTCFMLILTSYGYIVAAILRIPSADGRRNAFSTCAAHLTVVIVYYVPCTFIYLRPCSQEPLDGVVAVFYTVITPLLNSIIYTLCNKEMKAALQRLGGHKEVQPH
Outline: as §1

OR10G7 (Homo sapiens) = biological target: T3, OR10G7 (Homo sapiens) (UniProt Q8NGN6)
T3 sequence (whole entry): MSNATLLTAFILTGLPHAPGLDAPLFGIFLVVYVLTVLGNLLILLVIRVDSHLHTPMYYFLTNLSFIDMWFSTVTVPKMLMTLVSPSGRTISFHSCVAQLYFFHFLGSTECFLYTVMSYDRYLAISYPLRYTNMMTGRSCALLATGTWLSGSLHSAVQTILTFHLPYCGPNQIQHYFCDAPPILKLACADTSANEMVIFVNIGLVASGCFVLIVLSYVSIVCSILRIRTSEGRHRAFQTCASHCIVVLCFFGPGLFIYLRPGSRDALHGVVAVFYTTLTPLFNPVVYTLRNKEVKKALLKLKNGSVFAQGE
Outline: as §1

OR10G8 (Homo sapiens) = biological target: T4, OR10G8 (Homo sapiens) (UniProt Q8NGN5)
T4 sequence (whole entry): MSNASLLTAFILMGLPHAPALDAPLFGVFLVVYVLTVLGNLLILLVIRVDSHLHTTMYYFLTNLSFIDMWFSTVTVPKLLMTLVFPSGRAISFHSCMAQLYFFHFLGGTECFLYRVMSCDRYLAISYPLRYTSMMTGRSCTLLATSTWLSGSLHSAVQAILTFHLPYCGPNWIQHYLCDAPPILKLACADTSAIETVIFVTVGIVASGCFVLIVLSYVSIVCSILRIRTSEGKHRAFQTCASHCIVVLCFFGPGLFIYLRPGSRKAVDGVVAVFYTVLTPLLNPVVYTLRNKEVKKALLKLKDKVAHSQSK
Outline: as §1

OR10H1 (Homo sapiens) = biological target: T5, OR10H1 (Homo sapiens) (UniProt Q9Y4A9)
T5 sequence (whole entry): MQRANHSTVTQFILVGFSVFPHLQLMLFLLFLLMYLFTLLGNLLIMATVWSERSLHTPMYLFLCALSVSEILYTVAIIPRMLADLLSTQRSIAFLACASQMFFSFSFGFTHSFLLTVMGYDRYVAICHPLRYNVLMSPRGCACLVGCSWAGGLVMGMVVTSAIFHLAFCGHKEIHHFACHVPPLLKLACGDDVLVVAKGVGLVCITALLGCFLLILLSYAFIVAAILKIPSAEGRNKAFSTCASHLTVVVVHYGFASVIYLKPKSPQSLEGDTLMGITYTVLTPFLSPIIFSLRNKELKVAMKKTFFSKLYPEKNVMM
Outline: as §1

OR10H3 (Homo sapiens) = biological target: T6, OR10H3 (Homo sapiens) (UniProt O60404)
T6 sequence (whole entry): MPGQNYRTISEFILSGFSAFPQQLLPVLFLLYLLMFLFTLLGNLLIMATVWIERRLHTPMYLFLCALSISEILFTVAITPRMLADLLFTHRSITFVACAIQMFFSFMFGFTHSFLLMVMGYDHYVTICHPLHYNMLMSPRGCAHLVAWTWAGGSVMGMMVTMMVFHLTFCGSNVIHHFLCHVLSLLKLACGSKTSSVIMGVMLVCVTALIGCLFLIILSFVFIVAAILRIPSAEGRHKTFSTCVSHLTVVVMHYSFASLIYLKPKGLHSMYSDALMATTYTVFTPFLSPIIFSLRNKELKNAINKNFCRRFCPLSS
Outline: as §1

OR10H4 (Homo sapiens) = biological target: T7, OR10H4 (Homo sapiens) (UniProt Q8NGA5)
T7 sequence (whole entry): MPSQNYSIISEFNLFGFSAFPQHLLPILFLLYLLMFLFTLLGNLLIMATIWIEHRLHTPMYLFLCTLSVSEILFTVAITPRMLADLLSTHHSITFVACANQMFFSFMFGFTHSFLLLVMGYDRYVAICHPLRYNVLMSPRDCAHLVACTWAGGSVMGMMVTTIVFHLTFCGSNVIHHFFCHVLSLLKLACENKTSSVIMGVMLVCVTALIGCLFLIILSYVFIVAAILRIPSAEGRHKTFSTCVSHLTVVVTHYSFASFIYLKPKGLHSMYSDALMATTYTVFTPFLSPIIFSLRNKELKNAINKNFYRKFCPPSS
Outline: as §1

OR10J5 (Homo sapiens) = biological target: T8, OR10J5 (Homo sapiens) (UniProt Q8NHC4)
T8 sequence (whole entry): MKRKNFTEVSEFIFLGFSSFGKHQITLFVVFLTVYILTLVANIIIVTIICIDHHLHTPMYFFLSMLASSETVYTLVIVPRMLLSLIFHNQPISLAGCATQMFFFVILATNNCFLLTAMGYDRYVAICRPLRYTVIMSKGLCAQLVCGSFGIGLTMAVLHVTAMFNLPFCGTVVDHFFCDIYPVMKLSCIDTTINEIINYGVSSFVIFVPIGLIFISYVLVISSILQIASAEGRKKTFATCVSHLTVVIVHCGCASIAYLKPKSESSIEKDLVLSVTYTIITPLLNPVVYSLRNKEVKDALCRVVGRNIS
Outline: as §1

OR10K1 (Homo sapiens) = biological target: T9, OR10K1 (Homo sapiens) (UniProt Q8NGX5)
T9 sequence (whole entry): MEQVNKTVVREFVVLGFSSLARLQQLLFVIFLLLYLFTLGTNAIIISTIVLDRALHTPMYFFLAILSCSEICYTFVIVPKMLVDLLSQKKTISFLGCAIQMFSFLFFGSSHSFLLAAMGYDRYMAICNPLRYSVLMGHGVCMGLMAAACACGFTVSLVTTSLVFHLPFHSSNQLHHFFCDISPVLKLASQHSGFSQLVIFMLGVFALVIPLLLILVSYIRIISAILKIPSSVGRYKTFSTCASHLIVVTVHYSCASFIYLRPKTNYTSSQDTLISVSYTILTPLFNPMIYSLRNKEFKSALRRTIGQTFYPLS
Outline: as §1

OR10K2 (Homo sapiens) = biological target: T10, OR10K2 (Homo sapiens) (UniProt Q6IF99)
T10 sequence (whole entry): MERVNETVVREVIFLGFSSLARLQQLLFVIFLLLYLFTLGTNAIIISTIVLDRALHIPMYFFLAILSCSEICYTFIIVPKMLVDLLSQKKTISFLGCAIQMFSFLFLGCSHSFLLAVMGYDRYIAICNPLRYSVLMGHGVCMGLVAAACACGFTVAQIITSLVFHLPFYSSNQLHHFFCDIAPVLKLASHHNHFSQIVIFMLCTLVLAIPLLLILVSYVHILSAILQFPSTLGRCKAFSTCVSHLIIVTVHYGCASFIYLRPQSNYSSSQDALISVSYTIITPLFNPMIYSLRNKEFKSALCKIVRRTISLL
Outline: as §1

Measured: odorant receptor agonist call

CCC(C)=O
active: OR10G7 (Homo sapiens)
inactive: all other assays above
